Earlier results as cited in patent US9340547B2, “Pyrrolotriazinone derivatives as inhibitors P13K” (Almirall, S.A., priority 2011, dated 2016).
For at least one compound, name, drawing or mass did not settle the structure.

Experiments:
[1] = tested on: cancer patients with a dysregulated PI3 Kd activity, such as chronic lymphocytic leukemia; conditions: cited from earlier work
different tumor cells = conditions: in vitro; cited from earlier work

In the case of `CC[C@H](Nc1ncnc2[nH]cnc12)c1nc2cccc(F)c2c(=O)n1-c1ccccc1` [CAL-101], the “efficacy in cancer patients” value [1] is given as “efficacy” and the “anti-proliferative properties on tumor cells” value (different tumor cells) is given as “anti-proliferative properties”.
